The test has as its system P388 leukemia ip, CD2F1 mice, survival T/C. The test can be described thus: NCI In Vivo Anticancer Drug Screen. Data for tumor model P388 Leukemia (intraperitoneal) in CD2F1 (CDF1) mice. Particulars: T/C endpoint: median survival time, higher T/C = longer survival.
Where [1] appears, read: dose: 60.0 mg/kg/injection, schedule: Q01DX005 (ip), vehicle: saline with Tween-80.
Setting [2] is: dose: 120.0 mg/kg/injection, schedule: Q01DX005 (ip), vehicle: saline with Tween-80.
The mark [3] stands for this setting: dose: 240.0 mg/kg/injection, schedule: Q01DX005 (ip), vehicle: saline with Tween-80.
Setting [4] is: dose: 100.0 mg/kg/injection, schedule: Q01DX009 (ip), vehicle: saline with Tween-80.
Where [5] appears, read: dose: 200.0 mg/kg/injection, schedule: Q01DX005 (ip), vehicle: saline.
Where [6] appears, read: dose: 25.0 mg/kg/injection, schedule: Q01DX009 (ip), vehicle: saline.
The mark [7] stands for this setting: dose: 50.0 mg/kg/injection, schedule: Q01DX009 (ip), vehicle: saline.
[8] abbreviates: dose: 100.0 mg/kg/injection, schedule: Q01DX005 (ip), vehicle: saline.

The list shows only some results of the screen, not a fair sample: it is rich in T/C values a quarter to a half above the control, in often repeated tests (any T/C) and in doses without a T/C. Other doses and runs of a compound stand elsewhere. T/C: endpoint of the treated group in % of that of the vehicle group. Some entries give survivors of the animals treated and no T/C: the source files T/C as zero there, which appears to mark a toxic dose or a test without result, not a measured value. Some survivor counts are full or nearly so, which does not show that the dose was tolerated: survival well below the control is almost never listed, so the zero probably covers shortened survival too. Survivors were counted at the toxicity check, usually on the fifth day, unless a day is given; later deaths do not show. Schedule codes are those of the source, taken here to give the interval after Q, in days (D) or hours (H), and the number of doses after X. Some entries were tested several times; the results are listed from low to high. Where survival is the endpoint, the PubChem record calls one and a half times the control and up active, and a quarter to a half above the control has no call in these data; cut-offs in other NCI protocols can differ. Some T/C values carry the count of animals alive at the toxicity check (mostly the fifth day); without a count, all were alive then. Additions like (4×) count equal records among those shown.

Regarding `CCOC(=O)C(N)Cc1ccc(N(CCCl)CCCl)cc1` (configuration not stated), the survivor count was 6 of 6 (dose: 12.5 mg/kg/injection, schedule: Q01DX009 (ip), vehicle: saline) and 6 of 6 (dose: 25.0 mg/kg/injection, schedule: Q04DX003 (ip), vehicle: saline). Besides, for the setting “dose: 250.0 micrograms/kg/injection, schedule: Q04DX003 (ip), vehicle: saline”, the T/C was 136 % of control.

Take `CCN(CC)C(=S)N1C(=O)C2C3CCC(O3)C2C1=O` (configuration not stated): the survivor count by setting is: under setting [1], 5 of 6; under setting [2], 0 of 6; under setting [3], 0 of 6.

In the case of `CCOc1c(N=Nc2ccccc2OC)c(C)nn1C(N)=S`, the survivor count is, setting by setting: (dose: 30.0 mg/kg/injection, schedule: Q01DX005 (ip), vehicle: Klucel + Tween-80) 0 of 6; (dose: 60.0 mg/kg/injection, schedule: Q01DX005 (ip), vehicle: Klucel + Tween-80) 0 of 6; (dose: 120.0 mg/kg/injection, schedule: Q01DX005 (ip), vehicle: Klucel + Tween-80) 0 of 6; (dose: 240.0 mg/kg/injection, schedule: Q01DX005 (ip), vehicle: Klucel + Tween-80) 0 of 6.

As to `Nc1ccc(S(N)(=O)=O)cc1`, the T/C is, setting by setting: (dose: 25.0 mg/kg/injection, schedule: Q01DX009 (ip), vehicle: saline with Tween-80) 102, 105, 107, 109 % of control; (dose: 50.0 mg/kg/injection, schedule: Q01DX009 (ip), vehicle: saline with Tween-80) 94, 101, 102 [5 of 6 alive], 105 % of control; under setting [4], 96, 98, 102, 115 % of control.

As for `CC1=CC(O)C(O)C2(C)C1CC1OC(=O)C(OC3OC(CO)C(O)C(O)C3O)C3C(C)C(O)C4(O)OCC13C42` (configuration not stated), the survivor count is recorded as 3 of 6 (dose: 4.25 mg/kg/injection, schedule: Q01DX005 (ip), vehicle: water); 2 of 6 (dose: 8.5 mg/kg/injection, schedule: Q01DX005 (ip), vehicle: water); 0 of 6 (dose: 17.0 mg/kg/injection, schedule: Q01DX005 (ip), vehicle: water).

Consider `CCC/C(=N\NC(N)=NC)c1ccc(Cl)cc1`, for which the survivor count (dose: 100.0 mg/kg/injection, schedule: Q04DX002 (ip), vehicle: saline) is 1 of 6.

As to `Nc1n[nH]c(-c2ccccc2)n1`, the survivor count (dose: 200.0 mg/kg/injection, schedule: Q01DX009 (ip), vehicle: saline with Tween-80) was 6 of 6.

For the molecule `CCN(CC)CCC(CNc1c2ccc(Cl)cc2nc2ccc(OC)cc12)c1ccccc1` (configuration not stated), the survivor count reads like this: (dose: 100.0 mg/kg/injection, schedule: Q01DX005 (ip), vehicle: saline with Tween-80) 0 of 5; (dose: 200.0 mg/kg/injection, schedule: Q01DX005 (ip), vehicle: saline with Tween-80) 0 of 5.

As to `O=C(O)c1cc(N=C=S)ccc1-c1c2ccc(=O)cc-2oc2cc(O)ccc12`, the survivor count under setting [3] was 0 of 6.

Regarding `CCOC(=O)c1cc(/C=C/c2ccc(Cl)cc2Cl)on1`, the survivor count under setting [3] is recorded as 0 of 6.

With `N#C[C@H](OC1OC(COC2OC(CO)C(O)C(O)C2O)C(O)C(O)C1O)c1ccccc1` (some centres not stated), the survivor count by setting is: (dose: 200.0 mg/kg/injection, schedule: Q01DX009 (oral), vehicle: suspension in saline) 3 of 6 and 4 of 6; (dose: 400.0 mg/kg/injection, schedule: Q01DX009 (oral), vehicle: saline) 2 of 6; (dose: 400.0 mg/kg/injection, schedule: Q01DX009 (oral), vehicle: suspension in saline) 2 of 6; (dose: 400.0 mg/kg/injection, schedule: Q01DX009 (oral), vehicle: water) 0 of 6; (dose: 800.0 mg/kg/injection, schedule: Q01DX009 (oral), vehicle: suspension in saline) 0 of 6 and 1 of 6; (dose: 800.0 mg/kg/injection, schedule: Q01DX009 (oral), vehicle: water) 0 of 6. In addition, the survivor count is 0 of 6 and 2 of 6 (dose: 1600.0 mg/kg/injection, schedule: Q01DX009 (oral), vehicle: suspension in saline); 0 of 6 (dose: 1600.0 mg/kg/injection, schedule: Q01DX009 (oral), vehicle: water); 0 of 6 (dose: 3200.0 mg/kg/injection, schedule: Q01DX009 (oral), vehicle: suspension in saline); 0 of 6 (dose: 3200.0 mg/kg/injection, schedule: Q01DX009 (oral), vehicle: water).

On to `CC1CN=C(c2ccc(NC(=O)Nc3ccc(C(=O)Nc4ccc(C5=NCC(C)N5)cc4)cc3)cc2)N1` (configuration not stated), for which the T/C is, setting by setting: (dose: 6.25 mg/kg/injection, schedule: Q01DX009 (ip), vehicle: saline with Tween-80) 140 % of control; (dose: 50.0 mg/kg/injection, schedule: Q04DX003 (ip), vehicle: saline with Tween-80) 125 % of control. Moreover, the survivor count under setting [4] was 4 of 6; the survivor count (dose: 200.0 mg/kg/injection, schedule: Q04DX003 (ip), vehicle: saline) is reported as 2 of 6; the survivor count (dose: 400.0 mg/kg/injection, schedule: Q04DX003 (ip), vehicle: saline) is 1 of 6.

Consider `CC(=O)OC1(c2ccccc2)CCN(C)CC1C(=O)c1ccccc1` (configuration not stated), for which the survivor count under setting [5] is given as 2 of 6.

Take `COC1(NS(=O)(=O)c2ccc(C)cc2)CC1`: the survivor count (dose: 240.0 mg/kg/injection, schedule: Q01DX005 (ip), vehicle: Klucel (hydroxypropylcellulose) (HPC)) is 0 of 6.

In the case of `CCOC(=O)C(Cc1ccc(O)cc1)NC(=O)c1cc2c(cn1)[nH]c1ccccc12` (configuration not stated), under setting [3], the T/C is 125 % of control.

Consider `[CH3][Sn]([CH3])([N]=C=S)[N]=C=S`, for which the T/C reads like this: under setting [6], 135 % of control; under setting [7], 138 % of control [5 of 6 alive]. In addition, the survivor count reads like this: (dose: 100.0 mg/kg/injection, schedule: Q01DX009 (ip), vehicle: suspension in saline) 3 of 6; (dose: 200.0 mg/kg/injection, schedule: Q01DX009 (ip), vehicle: suspension in saline) 1 of 6.

`O=S(=O)(O)c1cc(N=C=S)ccc1/C=C/c1ccc(N=C=S)cc1S(=O)(=O)O`: the T/C is 113, 116, 119, 123 % of control (dose: 50.0 mg/kg/injection, schedule: Q01DX005 (ip), vehicle: saline); 126 (2×) and 129 % of control under setting [8]. Also, the survivor count was 6 of 6 under setting [8]; 0 of 6 and 4 of 5 under setting [5].

As to `O=NNc1ccc(Sc2ccccc2)cn1`, the T/C runs as follows: (dose: 1.56 mg/kg/injection, schedule: Q01DX009 (ip), vehicle: saline) 126 % of control; (dose: 3.12 mg/kg/injection, schedule: Q01DX009 (ip), vehicle: saline) 144 and 148 % of control; (dose: 6.25 mg/kg/injection, schedule: Q01DX009 (ip), vehicle: saline) 141 % of control. For the same molecule, the survivor count under setting [6] was 3 of 6 and 4 of 6; the survivor count under setting [7] is on record as 0 of 6.

Regarding `NNc1ccc(-n2ncc(C(N)=O)c2N)nn1`, where the note is “dose: 200.0 mg/kg/injection, schedule: Q01DX005 (ip), vehicle: other”, the survivor count is recorded as 1 of 5.

In the case of `C1=CN2C(c3ccccc3)=NN(c3ccccc3)[C@@H]2c2ccccc21`, the survivor count (dose: 15.0 mg/kg/injection, schedule: Q01DX005 (ip), vehicle: saline with Tween-80) was 6 of 6; the survivor count (dose: 30.0 mg/kg/injection, schedule: Q01DX005 (ip), vehicle: saline with Tween-80) is reported as 4 of 6; the survivor count under setting [1] is 1 of 6; the survivor count under setting [2] is on record as 0 of 6; the survivor count under setting [3] is on record as 0 of 6.

As to `[CH3][Sn]([CH3])([O]S(=O)c1ccc(Cl)cc1)[O]S(=O)c1ccc(Cl)cc1` (configuration not stated), the survivor count (dose: 400.0 mg/kg/injection, schedule: Q01DX001 (ip), vehicle: Klucel (hydroxypropylcellulose) (HPC)) is recorded as 0 of 6.

Consider `CCCCCCCCCCOC(=O)CC(C)=O.CCCCCCCCCCOC(=O)CC(C)=O.[Ni+2]`, for which the survivor count (dose: 200.0 mg/kg/injection, schedule: Q01DX009 (ip), vehicle: saline) is recorded as 1 of 6.

As to `O=C1CSC(=S)N1c1ccc(Cl)cc1`, the survivor count (dose: 200.0 mg/kg/injection, schedule: Q01DX009 (ip), vehicle: Klucel (hydroxypropylcellulose) (HPC)) is 2 of 5.
